The values below come from article PMC10525927, “First Generation of Antioxidant Precursors for Bioisosteric Se-NSAIDs: Design, Synthesis, and In Vitro and In Vivo Anticancer Evaluation” (Antioxidants, 2023).

Assay type in all cases: cell-based
Holding throughout (conditions): selectivity index

The subject of data set [1] is T-47D breast cancer cells. As to the kind of experiment: MTT cell viability assay, T-47D. Here is the method:
(§1) The cell lines were purchased from the American Type Culture Collection (ATCC). The cancer cell lines DU-145, PC-3, T-47D, MDA-MB-231, H1299, and A549, and the non-tumorigenic cells (184B5 and BEAS-2B), were maintained in RPMI 1640 medium (Gibco, Alcobendas, Madrid, Spain) supplemented with 10% fetal bovine serum (FBS; Gibco) and 1% antibiotics (10.00 units/mL penicillin and 10.00 mg/mL streptomycin; Gibco). Colon cancer cells HT-29 and HCT-116 were cultured in McCoy’s 5A medium (Gibco) supplemented with 10% fetal bovine serum (FBS; Gibco) and 1% antibiotics (10.00 units/mL penicillin and 10.00 mg/mL streptomycin; Gibco). Cells were maintained in tissue culture flasks at 37 °C and 5% CO2. The culture medium was replaced every three days.
(§2) The antiproliferative activity and selectivity in vitro of the Se-NSAID derivatives were determined by the (3-(4,5-dimethylthiazol-2-yl)-2,5-diphenyltetrazolium bromide) (MTT) assay. Compounds were dissolved in DMSO at a concentration of 0.01 M and serial dilutions were prepared. The Se-NSAID derivatives were tested at seven concentrations ranging between 1 and 100 µM in the colon (HT-29 and HCT-116), prostate (DU-145 and PC-3), breast (MDA-MB-231 and T-47D), and lung (H1299 and A549) cancer cell lines. The non-tumorigenic breast (184B5) and lung (BEAS-2B) cell lines were also tested to assess the selectivity of the compounds following the same procedure. A total of 1 × 10^4 cells were seeded per well in 96-well plates and incubated at 5% CO2 and 37 °C for 24 h. Then, cells were treated with either DMSO or increasing concentrations of the corresponding Se-NSAID derivatives for 48 h. A volume of 20 µL of MTT (5 mg/mL) was added to each well 2.5 h before the termination point. At the end of the experiment, the medium was removed, and the resultant formazan crystals formed by mitochondrial reduction of MTT were dissolved in 50 µL of DMSO. Absorbance was measured at 550 nm. IC50, GI50, TGI, and LC50 values were calculated using OriginPro version 8.5.1. software by nonlinear curve fitting. Selectivity indexes (SI) were calculated as the ratio of the IC50 values determined for the nonmalignant and the tumoral cells in the breast (IC50 (184B5)/IC50 (MDA-MB-231) and IC50 (184B5)/IC50 (T-47D)) and lung (IC50 (BEAS-2B)/IC50 (H1299) and IC50 (BEAS-2B)/IC50 (A549)) cell lines. Data were obtained from at least three independent experiments performed in triplicates.
Background: Formazan colour is commonly taken as a measure of viable cells.

The subject of data set [2] is MDA-MB-231 breast cancer cells. As to the kind of experiment: MTT cell viability assay, MDA-MB-231. The procedure:
as §1, §2

For a further data set, the system named is H1299 lung cancer cells. As to the kind of experiment: MTT cell viability assay, H1299. Here is the method: as §1
as §2, with “A volume of 20 µL of MTT (5 mg/mL) was added to each well 2.5 h before the termination point. At the end of the experiment, the medium was removed, and the resultant formazan crystals formed by mitochondrial reduction of MTT were dissolved in 50 µL of DMSO.” left out, “Data were obtained from at least three independent experiments performed in triplicates.” left out

A further data set concerns A549 lung cancer cells. As to the kind of experiment: MTT cell viability assay, A549. Here is the method:
as §1
as §2, with “A volume of 20 µL of MTT (5 mg/mL) was added to each well 2.5 h before the termination point. At the end of the experiment, the medium was removed, and the resultant formazan crystals formed by mitochondrial reduction of MTT were dissolved in 50 µL of DMSO.” left out, “Data were obtained from at least three independent experiments performed in triplicates.” left out

Structures are written as SMILES. Values joined by “and” are separate entries in the source; they are usually repeats but may differ in a detail not shown here. Equal entries are not always repeated.

Turning to `COc1ccc2cc(C(C)C(=O)[Se][Se]C(=O)C(C)c3ccc4cc(OC)ccc4c3)ccc2c1` (centres unmarked) [Compound 3, 2-(6-Methoxynaphthalen-2-yl)propanoic diselenoperoxyanhydride], the “SI IC50 (184B5)/IC50 (T-47D)” value in data set [1] stood at 2.1. Moreover, in data set [2], the “SI IC50 (184B5)/IC50 (MDA-MB-231)” value is on record as 2.1. Further, in the data set on H1299 lung cancer cells, the “SI IC50 (BEAS-2B)/IC50 (H1299)” value was found to be 1.4.

On to `CC(C(=O)[Se][Se]C(=O)C(C)c1cccc(C(=O)c2ccccc2)c1)c1cccc(C(=O)c2ccccc2)c1` (centres unmarked) [Compound 4, 2-(3-Benzoylphenyl)propanoic diselenoperoxyanhydride], for which the “SI IC50 (184B5)/IC50 (T-47D)” value in data set [1] is 0.2. Also, in data set [2], the “SI IC50 (184B5)/IC50 (MDA-MB-231)” value worked out at 1.4. In addition, the “SI IC50 (BEAS-2B)/IC50 (A549)” value in the data set with A549 lung cancer cells is < 0.5 and 0.4.

In the case of `CC(C)Cc1ccc(C(C)C(=O)[Se][Se]C(=O)C(C)c2ccc(CC(C)C)cc2)cc1` (centres unmarked) [Compound 5, 2-(4-Isobutylphenyl)propanoic diselenoperoxyanhydride], the “SI IC50 (184B5)/IC50 (T-47D)” value in data set [1] came to 4.8. In addition, the “SI IC50 (184B5)/IC50 (MDA-MB-231)” value in data set [2] is 2.2. In addition, in the data set with H1299 lung cancer cells, the “SI IC50 (BEAS-2B)/IC50 (H1299)” value is on record as 1.7. Also, the “SI IC50 (BEAS-2B)/IC50 (A549)” value in the data set on A549 lung cancer cells came to 3.5.

As for `CC(=O)Oc1ccccc1C(=O)[Se][Se]C(=O)c1ccccc1OC(C)=O` [Compound 1, 2-Acetoxybenzoic diselenoperoxyanhydride], the “SI IC50 (184B5)/IC50 (T-47D)” value in data set [1] is on record as 2.4. The “SI IC50 (184B5)/IC50 (MDA-MB-231)” value in data set [2] is reported as 0.8. Besides, in the data set on H1299 lung cancer cells, the “SI IC50 (BEAS-2B)/IC50 (H1299)” value is > 2 and 2.2. Moreover, in the data set on A549 lung cancer cells, the “SI IC50 (BEAS-2B)/IC50 (A549)” value was > 2 and 2.6.
